Reference: PubChem BioAssay AID2685 (National Center for Advancing Translational Sciences (NCATS), 2010)
Some of the results follow. Shown are side measurements of this screen, not its main read-out; they come without a call. The list favours compounds with an active or inconclusive main result. The note in brackets gives the kind of curve behind each potency; many fits are weak.

Test: qHTS Assay for Lipid Storage Modulators in Drosophila S3 Cells;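 for cell number change: cells counted by Cell Tracker Red CMTPX staining in the red channel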
Conditions: BODIPY lipid droplet fluorescence, 18-24 h; for cell number change: measured here: cell count max response, cells fed with added oleic acid
Procedure, shortened: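 Drosophila S3 cells got compounds at several concentrations plus oleic acid (400 uM solution). Laser-scanning cytometry with 488 nm excitation read lipid droplets at 500-530 nm and cells at 575-640 nm. Percent activity was relative to 20 uM Triacsin C.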

[1] = measured here: cell number channel AC50, cells fed with added oleic acid
[2] = measured here: lipid fluorescence (Fed channel) AC50, cells fed with added oleic acid

| Compound | cell number change | AC50 [1] | AC50 [2] |
| --- | --- | --- | --- |
| CCOc1ccccc1/C=C/C(=O)NCC(=O)N1CCC(N(C)C2CCCCC2C)CC1 (stereo unspecified) | 31.7% | 8.2 µM [rising, partial curve, poor fit] | 0.103 µM [falling, single point] |
| COc1ccc(N2C(=O)CSC23C(=O)N(CC(=O)NC2CCCC2)c2ccccc23)cc1 (stereo unspecified) | 0.382% | – | 6.51 µM [rising, single point] |
| COC(=O)c1sc(S(=O)(=O)Nc2ccc(C)c(C)c2)c(C(=O)OC)c1C | 10.4% | – | 5.8 µM [falling, single point] |
| CCOC(=O)C1=C(C)N(C)C(C)=C(C(=O)OCC)C1c1ccc(Cl)cc1 | 4.44% | 3.26 µM [falling, partial curve] | – |
| Cc1ccc(/C=N/n2c(-c3cccnc3)n[nH]c2=S)s1 | 15.4% | 3.26 µM [rising, single point] | – |
| Cc1ccc(C)c(N2C(=O)c3ccc(C(=O)OCC(=O)c4c(N)n(C)c(=O)n(C)c4=O)cc3C2=O)c1 | 16.3% | 6.51 µM [rising, single point] | – |
| O=C(CCCNC(=O)/C(=C/c1ccccc1F)NC(=O)c1ccccc1)OCc1ccccc1 | -14.4% | – | 29.1 µM [falling, single point] |
| CCOC(=O)c1c(C)[nH]c(C)c1C(=O)CSc1nnc(-c2ccco2)n1Cc1ccccc1 | -27.4% | – | – |
| CCc1nc(SCC(=O)Nc2cc(C)ccc2OC)c2c(C)c(C)sc2n1 | -17.9% | – | – |
| CCc1ccc(Nc2n[n+](-c3ccccc3)c(-c3ccc(OC)c(Br)c3)s2)cc1 | 3.89% | – | 6.51 µM [rising, single point] |
| COc1ccc([C@H]2CC(=O)C=C(c3ccc(OC)cc3OC)C2)cc1 | -35.9% | 23.1 µM [falling, single point] | 0.00461 µM [falling, full curve, poor fit] |
| CCC(C(=O)OCC(=O)Nc1c(Cl)cccc1Cl)c1ccccc1 (stereo unspecified) | – | – | 29.1 µM [rising, single point] |
| O=C(O)C1C(c2ccccc2)C(C(=O)Oc2ccc(O)cc2)C1c1ccccc1 (stereo unspecified) | 13.9% | – | – |
| COc1ccc(CNCCC(c2ccc(OC(C)C)cc2)C(C)C)cc1OC (stereo unspecified) | -48.1% | 20.6 µM [falling, partial curve, poor fit] | 16.4 µM [falling, partial curve] |
| Cc1ccc(-n2nc(C)c3c(-c4cccs4)c(C#N)c(N)nc32)cc1 | -31.2% | 6.51 µM [falling, partial curve] | 13 µM [falling, single point] |
| CC1CN(c2oc(-c3ccco3)nc2S(=O)(=O)c2ccccc2)CC(C)O1 (stereo unspecified) | 12.4% | – | – |
| COc1ccc(NC(=O)CN(C)S(=O)(=O)c2ccccc2)cc1OC | -1.52% | 6.51 µM [falling, single point] | – |
| CN(CCCNC(=O)CCc1cn(C)c2ccccc12)C1CCCCC1 | -14.8% | – | 29.1 µM [rising, single point] |
| CCCc1c(OCCCOc2ccc(OCC(=O)O)cc2)ccc(C(C)=O)c1O | 5.52% | – | 8.2 µM [falling, partial curve, poor fit] |

In the list so far, 2 have an aryl thioether with sulfur outside any ring:

| Compound | cell number change | AC50 [1] | AC50 [2] |
| --- | --- | --- | --- |
| CCOC(=O)c1c(C)[nH]c(C)c1C(=O)CSc1nnc(-c2ccco2)n1Cc1ccccc1 | -27.4% | – | – |
| CCc1nc(SCC(=O)Nc2cc(C)ccc2OC)c2c(C)c(C)sc2n1 | -17.9% | – | – |

(more compounds)

| Compound | cell number change | AC50 [1] | AC50 [2] |
| --- | --- | --- | --- |
| O=C(/C=C/c1ccc(Cl)cc1Cl)NC(=S)Nc1ccc(CN2CCOCC2)cc1 | -68.9% | 14.6 µM [falling, partial curve] | 32.6 µM [falling, partial curve] |
| Cc1ncsc1CCOC(=O)C1C2CC3CC(C2)CC1C3 (stereo unspecified) | -43.3% | 29.1 µM [falling, single point] | 29.1 µM [falling, single point] |
| CCOC(=O)CC1(NC(=O)C2CCC(=O)N(Cc3ccccc3OC)C2)CCCCC1 (stereo unspecified) | -14.7% | – | 6.51 µM [falling, single point] |
| O=C(CS(=O)CC(=O)NC12CC3CC(CC(C3)C1)C2)Nc1ccc(F)cc1 (stereo unspecified) | 17.9% | – | – |
| CCn1c(SCC(=O)Nc2cc(C)on2)nc2sc(C)c(C)c2c1=O | 14.4% | – | 0.58 µM [rising, full curve] |
| Cc1ccc2nc(N(CCCN(C)C)C(=O)CS(=O)(=O)c3ccccc3)sc2c1 | -9.72% | 1.3 µM [falling, full curve, poor fit] | 0.651 µM [falling, full curve, poor fit] |
| Cc1ccc(S(=O)(=O)c2c(N)n(CC3CCOC3)c3nc4ccccc4nc23)cc1 (stereo unspecified) | – | – | 0.259 µM [rising, partial curve, poor fit] |
| COc1ccc(C(=O)C23CC4CC(C2)CC(C(=O)c2ccc(OC)cc2)(C4)C3)cc1 | 2.2% | – | 12.6 µM [rising, single point] |
| Cc1ccc(C(=O)Oc2cc(C)n(C)c(=O)c2)cc1 | 151% | – | 20.6 µM [rising, partial curve] |
| Cc1c(C)n2c(SCC(=O)Nc3cccc4ccccc34)nnc2[nH]c1=O | -52.6% | 32.6 µM [falling, single point] | – |
| COc1cc(/C=C2\SC(=S)N(CCC(=O)NCCc3ccccc3)C2=O)cc(OC)c1OC | – | – | 6.51 µM [falling, single point] |
| O=C(CSc1nc2ccccc2[nH]1)NCc1ccc(F)cc1 | – | – | 0.58 µM [falling, single point] |
| COc1cccc(Oc2cn[nH]c2-c2ccc(OC)cc2O)c1 | -77.1% | 23.1 µM [falling, partial curve] | 32.6 µM [falling, partial curve] |
| C=C1C(O)C[C@H]2C(=C)CCC3[C@H](OC(=O)[C@]3(O)CO)[C@@H]12 (stereo partly specified) | 21.2% | – | 3.66 µM [falling, single point] |
| O=C(O)c1ccccc1SC1CC(=O)N(c2cccc3ccccc23)C1=O (stereo unspecified) | -23.2% | – | 0.259 µM [falling, full curve, poor fit] |
| COCc1cc(=O)[nH]c(/N=C(\N)Nc2ccc(C)cc2)n1 | 6.27% | – | 2.31 µM [rising, single point] |
| C[C@@H](NC(=O)OC(C)(C)C)C(=O)NCC1CCC(C(=O)N[C@@H](Cc2ccccc2)C(=O)O)CC1 (stereo partly specified) | -12.8% | – | 5.8 µM [rising, single point] |
| COc1ccc([C@H]2CC(=O)C=C(c3cc(F)ccc3OC)C2)cc1 | -0.963% | – | 6.51 µM [rising, partial curve, poor fit] |
| O=C(Nc1cc(S(=O)(=O)N2CCCC2)ccc1OCC(F)(F)F)c1ccc(F)cc1 | 39.7% | 16.4 µM [rising, single point] | 0.461 µM [rising, single point] |

Full records from above.
O=C(O)C1C(c2ccccc2)C(C(=O)Oc2ccc(O)cc2)C1c1ccccc1 (stereo unspecified) as listed: cell number change: 13.9%
Cc1ccc(/C=N/n2c(-c3cccnc3)n[nH]c2=S)s1 as listed: cell number change: 15.4%; AC50 [1]: 3.26 µM [rising, single point]

(continued)

| Compound | cell number change | AC50 [1] | AC50 [2] |
| --- | --- | --- | --- |
| COc1cc(OC)c2c(OC)cccc2n1 | 8.76% | – | 18.4 µM [rising, single point] |
| O=C(Nc1ccnn1C1CCN(Cc2ccccc2)CC1)c1ccccc1Cl | 16.7% | – | 0.164 µM [rising, partial curve, poor fit] |
| COc1cc(C2NC(=O)NC(C)=C2C(=O)OC2CCCCC2)cc(Cl)c1O (stereo unspecified) | -36% | 32.6 µM [falling, single point] | 0.58 µM [rising, single point] |
| COc1ccc(CNc2nc3c(c(C(F)(F)F)n2)CCCCC3)cc1 | -51.5% | 9.2 µM [falling, partial curve] | 11.6 µM [falling, partial curve] |
| O=C(c1ccc2c(=O)n(Cc3ccccc3)c(=S)[nH]c2c1)N1CCCC1 | 4.84% | – | 10.3 µM [rising, partial curve, poor fit] |
| Cc1nn(-c2ccccc2)c(Cl)c1/C=C1\C(=O)N(C)C(=S)N1C | – | 0.146 µM [falling, full curve, poor fit] | – |
| Cc1ccc(-c2cc(-c3ccccc3[N+](=O)[O-])[nH]n2)c(O)c1 | -43.6% | 29.1 µM [falling, single point] | – |
| CC1CCN(C(=O)COC(=O)c2ccc(=O)n(Cc3ccccc3)n2)CC1 | – | 0.517 µM [falling, full curve] | – |
| CCS(=O)(=O)N1Cc2ccccc2CC1C(=O)NCC12CC3CC(CC(C3)C1)C2 (stereo unspecified) | 2.71% | – | 18.4 µM [falling, partial curve] |
| CC(=O)c1c(C)[nH]c(C(=O)COC(=O)c2cccc(S(=O)(=O)N(C)c3ccccc3)c2)c1C | – | 0.82 µM [rising, partial curve, poor fit] | 5.8 µM [falling, partial curve] |
| CC(=O)c1cccc(NC(=O)C2CCN(S(=O)(=O)c3ccccc3)CC2)c1 | 15.9% | – | – |
| O=C(O)CCCC(=O)Nc1ccc2c(c1)oc1ccccc12 | 24.2% | – | 29.1 µM [rising, single point] |
| CCOc1ccc(N2C(=O)CC(N3CCC(O)(c4ccc(Br)cc4)CC3)C2=O)cc1 (stereo unspecified) | 4.69% | 4.61 µM [rising, single point] | – |
| COc1ccc(CNC(=O)c2nn(C)c3c2CS(=O)(=O)c2ccccc2-3)cc1 | 29% | – | 10.3 µM [rising, partial curve] |
| CSc1nc(C)c(CCOC(=O)c2cccc(C)c2)c(=O)[nH]1 | 4.89% | – | – |
| Cc1cc2ncn(/N=C/c3cccnc3)c2cc1C | -12.8% | – | 29.1 µM [falling, single point] |
| COc1ccccc1OCC(=O)NCCS(=O)(=O)N1CCN(c2ccc(F)cc2)CC1 | -7.25% | – | – |
| C=CCn1c(Cc2c[nH]c3ccccc23)nnc1SCC(=O)NCc1ccccc1 | -39% | 14.6 µM [falling, single point] | – |
| O=C(Nc1ccc(-c2n[nH]c(=S)o2)cc1)c1ccccc1Br | -23.1% | – | 3.66 µM [rising, full curve, poor fit] |
